Measurements taken from the supplement of paper PMC10849652.
The other results are listed elsewhere or left out.

By UniProt entry, the sequences of proteins in these tests, tags left out. Where a name states a change or a piece, a line headed by the entry shows the natural chain unless it says otherwise.
UniProt Q1ZZU3: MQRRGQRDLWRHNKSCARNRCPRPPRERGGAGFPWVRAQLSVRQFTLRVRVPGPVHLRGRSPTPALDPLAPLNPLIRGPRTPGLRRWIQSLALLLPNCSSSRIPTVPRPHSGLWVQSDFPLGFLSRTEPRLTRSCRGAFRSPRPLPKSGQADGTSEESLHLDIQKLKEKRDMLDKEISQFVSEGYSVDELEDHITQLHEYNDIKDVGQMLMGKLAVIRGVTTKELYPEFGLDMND
UniProt P53597: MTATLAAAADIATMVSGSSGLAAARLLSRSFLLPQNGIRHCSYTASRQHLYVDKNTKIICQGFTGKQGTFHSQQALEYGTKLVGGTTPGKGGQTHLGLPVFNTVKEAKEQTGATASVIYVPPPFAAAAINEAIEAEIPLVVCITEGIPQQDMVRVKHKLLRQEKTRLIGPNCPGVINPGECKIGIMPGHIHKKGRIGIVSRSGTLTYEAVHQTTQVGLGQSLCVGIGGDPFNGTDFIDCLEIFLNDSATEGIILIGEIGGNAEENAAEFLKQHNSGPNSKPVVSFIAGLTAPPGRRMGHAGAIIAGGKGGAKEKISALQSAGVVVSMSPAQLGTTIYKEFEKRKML
UniProt Q16594, whole entry, looked up: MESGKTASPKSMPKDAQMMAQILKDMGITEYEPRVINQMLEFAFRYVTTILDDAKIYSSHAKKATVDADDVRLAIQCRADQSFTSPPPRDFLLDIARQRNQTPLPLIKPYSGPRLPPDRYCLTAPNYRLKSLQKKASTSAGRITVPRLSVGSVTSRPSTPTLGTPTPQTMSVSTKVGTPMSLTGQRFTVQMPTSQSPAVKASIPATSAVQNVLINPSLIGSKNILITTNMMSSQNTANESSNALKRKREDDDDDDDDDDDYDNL
UniProt O00268, whole entry, looked up: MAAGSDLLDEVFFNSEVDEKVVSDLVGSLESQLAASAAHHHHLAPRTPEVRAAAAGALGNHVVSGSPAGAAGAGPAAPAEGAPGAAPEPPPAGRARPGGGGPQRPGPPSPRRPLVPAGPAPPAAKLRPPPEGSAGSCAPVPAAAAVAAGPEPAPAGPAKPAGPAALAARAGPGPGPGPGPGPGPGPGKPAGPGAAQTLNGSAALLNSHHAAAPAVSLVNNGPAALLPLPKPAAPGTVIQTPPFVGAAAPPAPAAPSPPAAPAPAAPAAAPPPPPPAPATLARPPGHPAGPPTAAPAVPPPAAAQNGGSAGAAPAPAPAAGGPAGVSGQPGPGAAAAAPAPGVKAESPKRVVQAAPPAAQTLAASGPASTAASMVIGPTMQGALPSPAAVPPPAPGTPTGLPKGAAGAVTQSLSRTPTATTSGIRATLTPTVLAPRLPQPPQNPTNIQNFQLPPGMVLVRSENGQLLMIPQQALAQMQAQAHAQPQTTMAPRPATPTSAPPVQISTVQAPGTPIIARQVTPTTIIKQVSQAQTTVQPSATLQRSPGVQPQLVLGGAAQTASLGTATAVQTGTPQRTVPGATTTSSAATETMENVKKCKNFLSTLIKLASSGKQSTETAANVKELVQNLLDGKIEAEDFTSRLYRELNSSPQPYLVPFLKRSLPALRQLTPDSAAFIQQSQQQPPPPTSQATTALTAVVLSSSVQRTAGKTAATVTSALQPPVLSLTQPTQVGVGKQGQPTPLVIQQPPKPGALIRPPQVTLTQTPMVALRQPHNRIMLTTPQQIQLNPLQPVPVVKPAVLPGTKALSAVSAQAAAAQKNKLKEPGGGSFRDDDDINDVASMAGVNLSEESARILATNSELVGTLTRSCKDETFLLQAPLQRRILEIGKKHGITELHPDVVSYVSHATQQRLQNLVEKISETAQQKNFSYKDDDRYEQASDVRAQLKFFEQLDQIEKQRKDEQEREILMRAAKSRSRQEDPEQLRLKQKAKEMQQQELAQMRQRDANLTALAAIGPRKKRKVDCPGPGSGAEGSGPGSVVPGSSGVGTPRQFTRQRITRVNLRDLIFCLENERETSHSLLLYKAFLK
UniProt Q92844: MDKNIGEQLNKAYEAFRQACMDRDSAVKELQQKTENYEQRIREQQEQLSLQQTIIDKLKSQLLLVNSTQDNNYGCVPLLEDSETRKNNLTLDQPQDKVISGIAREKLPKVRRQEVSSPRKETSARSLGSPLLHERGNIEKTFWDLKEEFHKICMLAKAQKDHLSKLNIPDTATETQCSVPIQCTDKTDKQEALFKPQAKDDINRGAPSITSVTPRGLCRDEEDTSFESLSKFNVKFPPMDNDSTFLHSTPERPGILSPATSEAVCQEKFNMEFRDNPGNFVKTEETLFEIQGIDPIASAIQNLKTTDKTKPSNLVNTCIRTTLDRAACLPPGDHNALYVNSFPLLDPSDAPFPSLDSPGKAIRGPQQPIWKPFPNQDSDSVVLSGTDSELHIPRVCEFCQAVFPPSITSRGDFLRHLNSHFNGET
UniProt Q15833: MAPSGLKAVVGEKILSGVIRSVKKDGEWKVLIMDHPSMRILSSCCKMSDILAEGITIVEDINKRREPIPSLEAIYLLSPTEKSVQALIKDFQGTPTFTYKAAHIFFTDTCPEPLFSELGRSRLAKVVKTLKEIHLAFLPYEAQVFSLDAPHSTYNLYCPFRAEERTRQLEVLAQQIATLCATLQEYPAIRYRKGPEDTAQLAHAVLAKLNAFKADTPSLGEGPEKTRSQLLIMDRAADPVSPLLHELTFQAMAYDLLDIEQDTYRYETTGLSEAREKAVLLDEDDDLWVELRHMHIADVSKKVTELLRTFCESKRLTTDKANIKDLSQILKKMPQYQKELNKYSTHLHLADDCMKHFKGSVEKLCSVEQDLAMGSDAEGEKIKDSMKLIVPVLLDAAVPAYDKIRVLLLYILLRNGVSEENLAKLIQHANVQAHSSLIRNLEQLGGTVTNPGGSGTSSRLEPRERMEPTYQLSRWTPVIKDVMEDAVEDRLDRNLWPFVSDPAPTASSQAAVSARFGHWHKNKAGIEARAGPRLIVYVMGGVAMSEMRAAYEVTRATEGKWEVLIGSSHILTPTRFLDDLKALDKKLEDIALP
UniProt Q93075: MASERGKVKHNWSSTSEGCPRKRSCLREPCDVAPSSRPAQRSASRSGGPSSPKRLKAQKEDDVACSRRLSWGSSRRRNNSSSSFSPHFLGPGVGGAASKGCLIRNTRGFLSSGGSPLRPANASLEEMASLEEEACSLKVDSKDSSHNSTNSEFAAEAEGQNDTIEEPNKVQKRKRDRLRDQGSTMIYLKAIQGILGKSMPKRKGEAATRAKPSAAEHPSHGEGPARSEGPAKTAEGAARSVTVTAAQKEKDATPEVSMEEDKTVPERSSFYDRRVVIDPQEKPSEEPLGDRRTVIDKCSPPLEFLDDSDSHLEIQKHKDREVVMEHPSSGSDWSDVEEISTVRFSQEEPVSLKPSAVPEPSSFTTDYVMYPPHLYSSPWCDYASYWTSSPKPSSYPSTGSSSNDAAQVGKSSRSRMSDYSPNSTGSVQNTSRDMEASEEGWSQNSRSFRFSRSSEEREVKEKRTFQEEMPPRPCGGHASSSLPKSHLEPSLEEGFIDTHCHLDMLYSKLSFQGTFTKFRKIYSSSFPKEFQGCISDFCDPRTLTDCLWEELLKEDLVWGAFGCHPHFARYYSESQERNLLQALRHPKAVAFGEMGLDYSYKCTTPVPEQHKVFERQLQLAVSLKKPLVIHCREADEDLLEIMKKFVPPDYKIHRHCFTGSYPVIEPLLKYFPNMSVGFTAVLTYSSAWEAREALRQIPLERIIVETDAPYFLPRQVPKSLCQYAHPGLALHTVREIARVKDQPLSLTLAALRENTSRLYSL
UniProt P27105: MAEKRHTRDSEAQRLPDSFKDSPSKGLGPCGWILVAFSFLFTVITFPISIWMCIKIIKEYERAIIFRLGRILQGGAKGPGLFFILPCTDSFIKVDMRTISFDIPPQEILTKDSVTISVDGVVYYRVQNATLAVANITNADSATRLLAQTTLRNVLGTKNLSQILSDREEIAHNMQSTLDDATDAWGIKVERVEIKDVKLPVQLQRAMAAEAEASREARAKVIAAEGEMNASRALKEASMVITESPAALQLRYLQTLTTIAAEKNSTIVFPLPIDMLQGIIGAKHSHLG
UniProt O95926: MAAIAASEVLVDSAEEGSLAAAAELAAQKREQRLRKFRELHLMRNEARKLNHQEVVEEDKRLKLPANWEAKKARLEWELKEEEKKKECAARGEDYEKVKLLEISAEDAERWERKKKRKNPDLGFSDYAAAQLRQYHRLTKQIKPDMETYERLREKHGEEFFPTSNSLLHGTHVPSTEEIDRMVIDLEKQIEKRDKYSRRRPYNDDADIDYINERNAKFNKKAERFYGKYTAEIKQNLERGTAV
UniProt Q9UH99: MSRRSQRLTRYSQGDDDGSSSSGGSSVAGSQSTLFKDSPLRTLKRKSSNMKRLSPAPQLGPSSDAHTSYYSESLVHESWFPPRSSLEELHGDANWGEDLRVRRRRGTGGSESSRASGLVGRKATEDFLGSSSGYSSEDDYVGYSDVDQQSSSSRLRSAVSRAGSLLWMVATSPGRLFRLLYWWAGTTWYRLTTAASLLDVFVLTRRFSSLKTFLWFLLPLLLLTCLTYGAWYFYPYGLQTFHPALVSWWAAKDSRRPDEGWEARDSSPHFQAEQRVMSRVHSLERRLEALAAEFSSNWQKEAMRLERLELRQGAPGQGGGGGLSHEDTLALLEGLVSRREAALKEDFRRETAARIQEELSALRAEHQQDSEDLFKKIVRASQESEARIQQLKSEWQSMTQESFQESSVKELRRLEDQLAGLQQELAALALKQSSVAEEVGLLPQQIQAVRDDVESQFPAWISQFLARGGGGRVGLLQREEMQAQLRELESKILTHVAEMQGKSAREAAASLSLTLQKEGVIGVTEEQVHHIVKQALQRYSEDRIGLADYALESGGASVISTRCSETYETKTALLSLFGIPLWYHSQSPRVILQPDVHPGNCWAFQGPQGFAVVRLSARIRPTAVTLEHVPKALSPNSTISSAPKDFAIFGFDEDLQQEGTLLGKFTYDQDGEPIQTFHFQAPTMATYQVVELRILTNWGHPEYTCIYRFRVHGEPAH
UniProt Q9Y2K9: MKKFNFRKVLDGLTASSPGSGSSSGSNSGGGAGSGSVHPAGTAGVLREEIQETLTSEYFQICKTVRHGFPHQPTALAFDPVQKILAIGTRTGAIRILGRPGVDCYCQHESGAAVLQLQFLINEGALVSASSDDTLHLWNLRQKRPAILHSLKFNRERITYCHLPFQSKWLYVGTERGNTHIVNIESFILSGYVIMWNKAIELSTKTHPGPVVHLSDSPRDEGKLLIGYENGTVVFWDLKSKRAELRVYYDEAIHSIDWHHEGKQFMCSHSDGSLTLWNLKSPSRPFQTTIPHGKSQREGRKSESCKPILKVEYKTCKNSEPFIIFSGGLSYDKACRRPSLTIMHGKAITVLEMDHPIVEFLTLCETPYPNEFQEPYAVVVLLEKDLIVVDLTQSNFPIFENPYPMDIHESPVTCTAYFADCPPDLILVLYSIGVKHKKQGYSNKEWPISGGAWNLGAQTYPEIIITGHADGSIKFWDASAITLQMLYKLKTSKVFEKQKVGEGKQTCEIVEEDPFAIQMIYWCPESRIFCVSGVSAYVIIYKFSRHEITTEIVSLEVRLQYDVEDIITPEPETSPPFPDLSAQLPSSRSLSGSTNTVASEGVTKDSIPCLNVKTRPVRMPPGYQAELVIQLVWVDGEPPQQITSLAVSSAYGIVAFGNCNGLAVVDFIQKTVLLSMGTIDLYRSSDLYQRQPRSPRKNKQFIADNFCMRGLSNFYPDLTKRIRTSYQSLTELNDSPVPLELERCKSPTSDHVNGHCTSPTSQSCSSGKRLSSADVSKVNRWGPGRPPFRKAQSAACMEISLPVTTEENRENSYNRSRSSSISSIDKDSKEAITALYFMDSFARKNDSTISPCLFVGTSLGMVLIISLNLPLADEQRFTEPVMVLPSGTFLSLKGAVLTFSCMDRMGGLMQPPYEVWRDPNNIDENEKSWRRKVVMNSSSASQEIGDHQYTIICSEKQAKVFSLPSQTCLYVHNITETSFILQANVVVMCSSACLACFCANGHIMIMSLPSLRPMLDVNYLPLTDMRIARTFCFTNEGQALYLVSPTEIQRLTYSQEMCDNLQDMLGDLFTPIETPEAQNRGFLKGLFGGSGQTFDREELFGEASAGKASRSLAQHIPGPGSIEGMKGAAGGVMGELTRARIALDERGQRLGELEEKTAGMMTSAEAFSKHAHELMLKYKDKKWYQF
UniProt Q8NBK3: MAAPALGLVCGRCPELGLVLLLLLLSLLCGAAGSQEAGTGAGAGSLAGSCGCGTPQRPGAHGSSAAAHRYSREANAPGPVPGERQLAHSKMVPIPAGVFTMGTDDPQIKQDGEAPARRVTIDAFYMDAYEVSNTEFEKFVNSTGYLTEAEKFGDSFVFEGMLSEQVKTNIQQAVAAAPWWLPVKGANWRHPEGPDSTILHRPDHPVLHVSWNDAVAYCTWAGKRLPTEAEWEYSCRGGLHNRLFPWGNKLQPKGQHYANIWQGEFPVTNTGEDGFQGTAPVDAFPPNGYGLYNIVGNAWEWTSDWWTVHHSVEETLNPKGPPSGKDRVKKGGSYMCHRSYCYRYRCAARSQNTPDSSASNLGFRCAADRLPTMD

How the values were obtained:
Assay in all cases: log2 fold change, soluble protein after heating vs DMSO (PISA); higher = thermal stabilisation; K562 cells, 10 uM, 30 min; active = over 0.2 and 3.5 SD of the protein, either way, in both replicates (recomputed)
[1] = compound: COC1=CC=C(C=C1)CN2C=CC3=C2C=C(C=C3)C(=O)NO
Summary of the method: (§1)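 K562 cells at 2×10^6 cells/mL were treated with 10 μM compound for 30 min. Aliquots were heated for 3 min across 48°C-58°C, pooled, and extracted in PBS with 0.5% NP-40 at 4°C; soluble protein was the supernatant after 21,000xg for 90 min. Soluble protein was quantified by TMTpro 16plex LC-MS/MS with channel sums equalised, and reported as log2 fold change in thermal stability against DMSO controls, with values from duplicates.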

filanesib = compound: CON(C)C(=O)N1N=C(c2cc(F)ccc2F)S[C@@]1(CCCN)c1ccccc1 [filanesib]
Summary of the method: as §1

zotarolimus = compound: CO[C@H]1C[C@@H]2CC[C@@H](C)[C@@](O)(O2)C(=O)C(=O)N2CCCC[C@H]2C(=O)O[C@H]([C@H](C)C[C@@H]2CC[C@H](n3cnnn3)[C@H](OC)C2)CC(=O)[C@H](C)/C=C(\C)[C@@H](O)[C@@H](OC)C(=O)[C@H](C)C[C@H](C)/C=C/C=C/C=C/1C [zotarolimus]
Summary of the method: as §1

idasanutlin = compound: COc1cc(C(=O)O)ccc1NC(=O)[C@@H]1N[C@@H](CC(C)(C)C)[C@](C#N)(c2ccc(Cl)cc2F)[C@H]1c1cccc(Cl)c1F [idasanutlin]
Summary of the method: as §1

alisertib = compound: COc1cc(Nc2ncc3c(n2)-c2ccc(Cl)cc2C(c2c(F)cccc2OC)=NC3)ccc1C(=O)O [alisertib]
Summary of the method: as §1

[2] = compound: COc1cc2nc(-c3cc(F)ccc3O)nc(N[C@@H]3CNC[C@H]3C(C)(C)O)c2cc1OC
Summary of the method: as §1

gefitinib = compound: COc1cc2ncnc(Nc3ccc(F)c(Cl)c3)c2cc1OCCCN1CCOCC1 [gefitinib]
Summary of the method: as §1

[3] = compound: COc1cccc2cc(-c3nc([C@H]4CC[C@H](C(=O)O)CC4)n4ncnc(N)c34)[nH]c12
Summary of the method: as §1

lapatinib = compound: CS(=O)(=O)CCNCc1ccc(-c2ccc3ncnc(Nc4ccc(OCc5cccc(F)c5)c(Cl)c4)c3c2)o1 [lapatinib]
Summary of the method: as §1

pictilisib = compound: CS(=O)(=O)N1CCN(Cc2cc3nc(-c4cccc5[nH]ncc45)nc(N4CCOCC4)c3s2)CC1 [pictilisib]
Summary of the method: as §1

[4] = compound: CS(=O)(=O)c1ccc(-c2cnc(N)c(C(=O)Nc3ccccc3)n2)cc1
Summary of the method: as §1

crizotinib = compound: C[C@@H](Oc1cc(-c2cnn(C3CCNCC3)c2)cnc1N)c1c(Cl)ccc(F)c1Cl [crizotinib]
Summary of the method: as §1

[5] = compound: C[C@@H]1COCCN1C2=NC(=NC(=C2)C3(CC3)S(=O)(=O)C)C4=C5C=CNC5=CC=C4
Summary of the method: as §1

[6] = compound: C[C@H](C1=CC=C(C=C1)C(=O)NC2=C3C=CNC3=NC=C2)N
Summary of the method: as §1

gandotinib = compound: Cc1cc(Nc2cc(CN3CCOCC3)c3nc(C)c(Cc4ccc(Cl)cc4F)n3n2)n[nH]1 [gandotinib]
Summary of the method: as §1

[7] = compound: Cc1cc(SCc2sc(-c3ccc(C(F)(F)F)cc3)nc2C)ccc1OCC(=O)O
Summary of the method: as §1

doramapimod = compound: Cc1ccc(-n2nc(C(C)(C)C)cc2NC(=O)Nc2ccc(OCCN3CCOCC3)c3ccccc23)cc1 [doramapimod]
Summary of the method: as §1

ispinesib = compound: Cc1ccc(C(=O)N(CCCN)[C@@H](c2nc3cc(Cl)ccc3c(=O)n2Cc2ccccc2)C(C)C)cc1 [ispinesib]
Summary of the method: as §1

duvelisib = compound: C[C@H](Nc1ncnc2nc[nH]c12)c1cc2cccc(Cl)c2c(=O)n1-c1ccccc1 [duvelisib]
Summary of the method: as §1

tozasertib = compound: Cc1cc(Nc2cc(N3CCN(C)CC3)nc(Sc3ccc(NC(=O)C4CC4)cc3)n2)n[nH]1 [tozasertib]
Summary of the method: as §1

Measured: log2 fold change

STK39 (UniProt Q9UEW8)
inactive: [1] -0.016 | filanesib -0.033 | zotarolimus 0.062 | idasanutlin -0.06 | alisertib -0.044 | [2] 0.034 | gefitinib -0.014 | [3] -0.036 | lapatinib -0.002 | pictilisib 0.107 | [4] 0.109 | crizotinib -0.174 | [5] 0.028 | [6] 0.061 | gandotinib -0.038 | [7] 0.048 | doramapimod -0.027 | ispinesib -0.038

SWI5 (UniProt Q1ZZU3)
inactive: [1] -0.033 | filanesib 0.032 | zotarolimus 0.033 | idasanutlin -0.318 | [2] 0.057 | gefitinib -0.029 | lapatinib -0.019 | pictilisib -0.077 | [4] 0.087 | crizotinib 0.017 | [5] 0.092 | [6] -0.074 | duvelisib 0.234 | gandotinib -0.16 | [7] -0.12 | doramapimod 0.084

SYNE1 (UniProt Q8NF91)
inactive: [1] 0.316 | filanesib -0.079 | zotarolimus 0.019 | idasanutlin -0.029 | alisertib 0.002 | gefitinib 0.049 | [3] 0.084 | pictilisib 0.187 | [4] 0.096 | crizotinib -0.132 | [5] -0.041 | [6] 0.104 | gandotinib 0.109 | [7] -0.04 | doramapimod 0.061 | ispinesib -0.159

SUCLG1 (UniProt P53597)
inactive: [1] -0.046 | filanesib -0.107 | zotarolimus 0.004 | idasanutlin -0.107 | alisertib 0.037 | [2] 0.051 | gefitinib -0.01 | [3] 0.041 | lapatinib -0.043 | pictilisib 0.003 | [4] 0.016 | crizotinib -0.028 | [5] 0.079 | [6] -0.072 | gandotinib -0.048 | [7] -0.004 | doramapimod -0.019 | ispinesib -0.012

Taken from the listing (two entries):
STK39 (UniProt Q9UEW8)
inactive: [1] -0.016 | filanesib -0.033 | zotarolimus 0.062 | idasanutlin -0.06 | alisertib -0.044 | [2] 0.034 | gefitinib -0.014 | [3] -0.036 | lapatinib -0.002 | pictilisib 0.107 | [4] 0.109 | crizotinib -0.174 | [5] 0.028 | [6] 0.061 | gandotinib -0.038 | [7] 0.048 | doramapimod -0.027 | ispinesib -0.038

SWI5 (UniProt Q1ZZU3)
inactive: [1] -0.033 | filanesib 0.032 | zotarolimus 0.033 | idasanutlin -0.318 | [2] 0.057 | gefitinib -0.029 | lapatinib -0.019 | pictilisib -0.077 | [4] 0.087 | crizotinib 0.017 | [5] 0.092 | [6] -0.074 | duvelisib 0.234 | gandotinib -0.16 | [7] -0.12 | doramapimod 0.084

Following part:

TAF9 (UniProt Q16594)
inactive: [1] 0.066 | filanesib 0.109 | zotarolimus -0.018 | idasanutlin 0.056 | alisertib -0.109 | [2] 0.024 | gefitinib 0.01 | [3] 0.019 | lapatinib -0.028 | pictilisib -0.017 | [4] -0.029 | crizotinib 0.043 | [5] 0.007 | [6] 0.116 | gandotinib -0.047 | [7] -0.131 | doramapimod -0.019 | ispinesib -0.007

TAF9B (UniProt Q9HBM6)
inactive: [1] -0.281 | filanesib -0.004 | zotarolimus 0.025 | alisertib -0.534 | [2] -0.026 | [3] -0.193 | lapatinib -0.042 | pictilisib -0.037 | [4] 0.033 | crizotinib 0.096 | [5] -0.056 | [6] -0.134 | duvelisib -0.009 | gandotinib 0.159 | tozasertib -0.217 | [7] -0.194 | doramapimod 0.058

STK3 isoform 2 (UniProt Q13188)
inactive: [1] 0.1 | filanesib -0.046 | zotarolimus 0.007 | idasanutlin 0.031 | [2] 0.064 | gefitinib -0.056 | [3] 0.031 | lapatinib 0.023 | pictilisib -0.056 | [4] 0.028 | crizotinib -0.052 | [5] -0.003 | [6] 0.005 | duvelisib 0.016 | gandotinib 0.051 | tozasertib -0.037 | [7] -0.013 | doramapimod 0.028 | ispinesib 0.007

TAF4 (UniProt O00268)
inactive: [1] 0 | filanesib 0.182 | idasanutlin 0.047 | alisertib -0.27 | [2] 0.059 | [3] 0.08 | lapatinib 0.23 | pictilisib -0.02 | [4] -0.09 | crizotinib 0.019 | [5] 0.046 | gandotinib -0.094 | tozasertib -0.058 | doramapimod -0.033 | ispinesib -0.031

TANK (UniProt Q92844)
inactive: [1] 0.017 | filanesib 0.03 | zotarolimus -0.024 | idasanutlin 0.02 | alisertib -0.028 | [2] 0.097 | gefitinib -0.032 | [3] 0.048 | lapatinib -0.015 | pictilisib 0.027 | [4] -0.032 | crizotinib 0.287 | [5] -0.021 | [6] 0.069 | gandotinib 0.135 | [7] 0.091 | doramapimod -0.015 | ispinesib -0.064

STK38L (UniProt Q9Y2H1)
inactive: [1] -0.007 | filanesib -0.009 | zotarolimus 0.036 | idasanutlin -0.095 | alisertib 0.037 | gefitinib 0.029 | [3] -0.064 | pictilisib 0.05 | [4] 0.028 | crizotinib 0.065 | [5] 0.069 | [6] -0.055 | gandotinib -0.105 | [7] 0.116 | doramapimod -0.022 | ispinesib -0.093

STXBP2 isoform 3 (UniProt Q15833)
inactive: [1] 0.021 | filanesib 0.001 | zotarolimus -0.043 | idasanutlin 0.043 | alisertib -0.034 | [2] 0.045 | gefitinib 0.043 | [3] -0.066 | lapatinib 0.007 | pictilisib -0.091 | [4] 0.049 | crizotinib -0.301 | [5] 0.022 | [6] 0.039 | gandotinib -0.03 | [7] 0.17 | doramapimod 0.152 | ispinesib -0.306

TATDN2 (UniProt Q93075)
inactive: [1] -0.011 | filanesib 0.002 | zotarolimus 0.006 | idasanutlin 0.012 | [2] -0.015 | gefitinib -0.037 | lapatinib 0.021 | pictilisib -0.016 | [4] 0.002 | crizotinib -0.061 | [5] 0.028 | [6] 0.078 | gandotinib 0.106 | [7] 0.045 | doramapimod 0.063

TBC1D10B (UniProt Q4KMP7)
inactive: [1] -0.001 | filanesib 0.062 | zotarolimus 0.011 | idasanutlin 0.032 | alisertib -0.088 | [2] -0.088 | gefitinib 0.008 | [3] -0.042 | lapatinib 0.041 | pictilisib -0.002 | [4] 0.012 | crizotinib -0.04 | [5] 0.013 | [6] -0.153 | gandotinib 0.046 | [7] 0.092 | doramapimod 0.021 | ispinesib 0.083

STOM (UniProt P27105)
inactive: [1] 0.004 | filanesib -0.068 | zotarolimus -0.083 | idasanutlin 0.046 | alisertib -0.154 | [2] -0.045 | gefitinib -0.062 | [3] -0.004 | lapatinib 0.067 | pictilisib -0.022 | [4] 0.086 | crizotinib -0.005 | [5] -0.035 | [6] 0.182 | gandotinib 0.268 | [7] 0.01 | doramapimod -0.006 | ispinesib -0.29

SYF2 (UniProt O95926)
inactive: [1] -0.236 | filanesib 0.069 | zotarolimus -0.174 | idasanutlin 0.058 | alisertib -0.07 | [2] 0.191 | gefitinib -0.109 | [3] 0.02 | lapatinib -0.025 | pictilisib -0.092 | [4] -0.147 | crizotinib 0.206 | [5] -0.031 | [6] 0.157 | gandotinib 0.11 | [7] -0.078 | doramapimod 0.022 | ispinesib -0.079

SUN2 (UniProt Q9UH99)
inactive: [1] 0.028 | filanesib 0.013 | zotarolimus 0.017 | idasanutlin 0.077 | alisertib -0.044 | [2] -0.194 | gefitinib -0.078 | [3] -0.007 | lapatinib 0.066 | pictilisib 0.071 | [4] -0.001 | crizotinib -0.094 | [5] 0.063 | [6] 0.044 | gandotinib 0.004 | [7] 0.05 | doramapimod 0.077 | ispinesib -0.104

STXBP5L (UniProt Q9Y2K9)
inactive: [1] 0.299 | filanesib -0.133 | zotarolimus 0.027 | [2] 0.165 | gefitinib -0.016 | lapatinib -0.027 | pictilisib -0.442 | [4] -0.111 | crizotinib -0.128 | [6] -0.01 | duvelisib -0.026 | gandotinib 0.108 | [7] 0.2 | doramapimod -0.04

SYNE2 isoform 2 (UniProt Q8WXH0)
active: gandotinib 0.521
inactive: [1] 0.112 | filanesib 0.048 | zotarolimus -0.057 | idasanutlin -0.185 | alisertib -0.054 | [2] 0.34 | gefitinib 0.078 | [3] -0.004 | lapatinib -0.133 | pictilisib 0.205 | [4] 0.209 | crizotinib -0.009 | [6] 0.429 | [7] 0.06 | doramapimod 0.046 | ispinesib -0.08

SUMF1 isoform 3 (UniProt Q8NBK3)
inactive: [1] 0.066 | filanesib -0.007 | idasanutlin 0.051 | alisertib -0.051 | [2] 0.035 | gefitinib -0.141 | [3] 0.041 | lapatinib 0.015 | pictilisib -0.02 | [4] -0.134 | crizotinib 0.037 | [5] 0.118 | duvelisib 0.11 | gandotinib -0.031 | tozasertib -0.342 | [7] -0.03 | doramapimod -0.1 | ispinesib -0.018
